# Experimental data taken from the supplement of paper PMC10077471.
# Over roughly 1,900 compounds, “excess over highest single agent (ExcessHSA) synergy score, 6x6 matrix” has its median near -83; the lowest 2% begin near -370. The list shows a part of the results.
# Test system: NCI-H446
# Assay: excess over highest single agent (ExcessHSA) synergy score, 6x6 matrix; higher = less synergy (more negative = stronger synergy)
# Conditions: 72 h; CellTiter-Glo viability
row,Structure (SMILES),excess over highest single agent
1,O=C(NCc1ccncc1)C12CC3CC(C1)CC(c1ccc(Cl)cc1)(C3)C2 + Cc1sc2c(c1C)C(c1ccc(Cl)cc1)=N[C@@H](CC(=O)OC(C)(C)C)c1nnc(C)n1-2 [NCGC00250412-19],51.6
2,NC(=O)c1ncn([C@@H]2O[C@H](CO)[C@@H](O)[C@H]2O)n1 + Cc1sc2c(c1C)C(c1ccc(Cl)cc1)=N[C@@H](CC(=O)OC(C)(C)C)c1nnc(C)n1-2 [NCGC00250412-19],-4.18
3,CC(C)NC1CCn2c(=O)[nH]c3cccc(c32)C1O (centres undefined) + Cc1sc2c(c1C)C(c1ccc(Cl)cc1)=N[C@@H](CC(=O)OC(C)(C)C)c1nnc(C)n1-2 [NCGC00250412-19],-112
4,CNC(=O)c1ccc(-c2cnc3ncc(Cc4ccc5ncccc5c4)n3n2)cc1F + Cc1sc2c(c1C)C(c1ccc(Cl)cc1)=N[C@@H](CC(=O)OC(C)(C)C)c1nnc(C)n1-2 [NCGC00250412-19],48.7
5,Nc1nc(=O)n([C@H]2C[C@H](O)[C@@H](CO)O2)cc1F + Cc1sc2c(c1C)C(c1ccc(Cl)cc1)=N[C@@H](CC(=O)OC(C)(C)C)c1nnc(C)n1-2 [NCGC00250412-19],-325
6,Cc1ccccc1-n1c(Cn2ncc3c(N)ncnc32)nc2cccc(C)c2c1=O + Cc1sc2c(c1C)C(c1ccc(Cl)cc1)=N[C@@H](CC(=O)OC(C)(C)C)c1nnc(C)n1-2 [NCGC00250412-19],-119
7,CC[C@H]1OC(=O)[C@H](C)[C@@H](O[C@H]2C[C@@](C)(OC)[C@@H](O)[C@H](C)O2)[C@H](C)[C@@H](O[C@@H]2O[C@H](C)C[C@H](N(C)C)[C@H]2O)[C@](C)(OC)C[C@@H](C)C(=O)[C@H](C)[C@@H](O)[C@]1(C)O + Cc1sc2c(c1C)C(c1ccc(Cl)cc1)=N[C@@H](CC(=O)OC(C)(C)C)c1nnc(C)n1-2 [NCGC00250412-19],-147
8,C/C(O)=C(\C#N)C(=O)Nc1cc(Br)ccc1Br + Cc1sc2c(c1C)C(c1ccc(Cl)cc1)=N[C@@H](CC(=O)OC(C)(C)C)c1nnc(C)n1-2 [NCGC00250412-19],-151
9,O=C(Nc1nc2ccccc2n1CCN1CCOCC1)c1cccc([N+](=O)[O-])c1 + Cc1sc2c(c1C)C(c1ccc(Cl)cc1)=N[C@@H](CC(=O)OC(C)(C)C)c1nnc(C)n1-2 [NCGC00250412-19],35.6
10,CN(C)CC[C@H](CSc1ccccc1)Nc1ccc(S(=O)(=O)NC(=O)c2ccc(N3CCN(Cc4ccccc4-c4ccc(Cl)cc4)CC3)cc2)cc1[N+](=O)[O-] + Cc1sc2c(c1C)C(c1ccc(Cl)cc1)=N[C@@H](CC(=O)OC(C)(C)C)c1nnc(C)n1-2 [NCGC00250412-19],-309
11,COc1cc([C@@H]2c3cc4c(cc3[C@@H](O)[C@H]3COC(=O)[C@H]23)OCO4)cc(OC)c1O + Cc1sc2c(c1C)C(c1ccc(Cl)cc1)=N[C@@H](CC(=O)OC(C)(C)C)c1nnc(C)n1-2 [NCGC00250412-19],-212
12,N#CC1(c2cccc(C(=O)Nc3cc(Oc4ccc5nc(NC(=O)C6CC6)sc5n4)ccc3F)c2Cl)CC1 + Cc1sc2c(c1C)C(c1ccc(Cl)cc1)=N[C@@H](CC(=O)OC(C)(C)C)c1nnc(C)n1-2 [NCGC00250412-19],-196
13,C[C@H]1COC2=C1C(=O)C(=O)c1c2ccc2c1CCCC2(C)C + Cc1sc2c(c1C)C(c1ccc(Cl)cc1)=N[C@@H](CC(=O)OC(C)(C)C)c1nnc(C)n1-2 [NCGC00250412-19],-209
14,NC(=O)Cc1cccc(C(=O)c2ccccc2)c1N + Cc1sc2c(c1C)C(c1ccc(Cl)cc1)=N[C@@H](CC(=O)OC(C)(C)C)c1nnc(C)n1-2 [NCGC00250412-19],-95.9
15,Nc1ccccc1NC(=O)c1ccc(CNC(=O)OCc2cccnc2)cc1 + Cc1sc2c(c1C)C(c1ccc(Cl)cc1)=N[C@@H](CC(=O)OC(C)(C)C)c1nnc(C)n1-2 [NCGC00250412-19],-124
16,CCCCOc1c(C(=O)c2c(F)cc(C)cc2F)c[nH]c2nncc1-2 + Cc1sc2c(c1C)C(c1ccc(Cl)cc1)=N[C@@H](CC(=O)OC(C)(C)C)c1nnc(C)n1-2 [NCGC00250412-19],-375
17,COc1cc(C)c(Sc2cnc(NC(=O)c3ccc(CNC(C)C(C)C)cc3)s2)cc1C(=O)N1CCN(C(C)=O)CC1 (centres undefined) + Cc1sc2c(c1C)C(c1ccc(Cl)cc1)=N[C@@H](CC(=O)OC(C)(C)C)c1nnc(C)n1-2 [NCGC00250412-19],-144
18,CCCC(C)(COC(N)=O)COC(=O)NC(C)C (centres undefined) + Cc1sc2c(c1C)C(c1ccc(Cl)cc1)=N[C@@H](CC(=O)OC(C)(C)C)c1nnc(C)n1-2 [NCGC00250412-19],-13.5
19,CN(C)C(=O)COC(=O)Cc1ccc(OC(=O)c2ccc(NC(=N)N)cc2)cc1 + Cc1sc2c(c1C)C(c1ccc(Cl)cc1)=N[C@@H](CC(=O)OC(C)(C)C)c1nnc(C)n1-2 [NCGC00250412-19],-37.3
20,C[C@@]12C(=O)OC(=O)[C@]1(C)[C@H]1CC[C@@H]2O1 + Cc1sc2c(c1C)C(c1ccc(Cl)cc1)=N[C@@H](CC(=O)OC(C)(C)C)c1nnc(C)n1-2 [NCGC00250412-19],-274
21,N=C(N)NC(=O)c1nc(Cl)c(N)nc1N + Cc1sc2c(c1C)C(c1ccc(Cl)cc1)=N[C@@H](CC(=O)OC(C)(C)C)c1nnc(C)n1-2 [NCGC00250412-19],-160
22,COc1cc(OC)c(OC)cc1C=O + Cc1sc2c(c1C)C(c1ccc(Cl)cc1)=N[C@@H](CC(=O)OC(C)(C)C)c1nnc(C)n1-2 [NCGC00250412-19],-51
23,CNCC[C@H](Oc1cccc2ccccc12)c1cccs1 + Cc1sc2c(c1C)C(c1ccc(Cl)cc1)=N[C@@H](CC(=O)OC(C)(C)C)c1nnc(C)n1-2 [NCGC00250412-19],-51.3
24,C[C@@H](Oc1cc(-n2cnc3ccc(CN4CCN(C)CC4)cc32)sc1C(N)=O)c1ccccc1C(F)(F)F + Cc1sc2c(c1C)C(c1ccc(Cl)cc1)=N[C@@H](CC(=O)OC(C)(C)C)c1nnc(C)n1-2 [NCGC00250412-19],-89.4

# Looked up above:
# Entry of CNC(=O)c1ccc(-c2cnc3ncc(Cc4ccc5ncccc5c4)n3n2)cc1F + Cc1sc2c(c1C)C(c1ccc(Cl)cc1)=N[C@@H](CC(=O)OC(C)(C)C)c1nnc(C)n1-2 [NCGC00250412-19] under excess over highest single agent: 48.7
# Entry of O=C(Nc1nc2ccccc2n1CCN1CCOCC1)c1cccc([N+](=O)[O-])c1 + Cc1sc2c(c1C)C(c1ccc(Cl)cc1)=N[C@@H](CC(=O)OC(C)(C)C)c1nnc(C)n1-2 [NCGC00250412-19] under excess over highest single agent: 35.6
